Assay results taken from publication PMC5216056 (Nature Communications, 2017).
A number of entries come with more than one value. This is not the full list of results. An entry can have further records. Values that stand side by side differ, and nothing given here explains why; dose, time, organism, isomer or construct need not be as stated for each record.

Amino acid sequences for entries named in this document (tags omitted).
UniProt P34972, whole entry: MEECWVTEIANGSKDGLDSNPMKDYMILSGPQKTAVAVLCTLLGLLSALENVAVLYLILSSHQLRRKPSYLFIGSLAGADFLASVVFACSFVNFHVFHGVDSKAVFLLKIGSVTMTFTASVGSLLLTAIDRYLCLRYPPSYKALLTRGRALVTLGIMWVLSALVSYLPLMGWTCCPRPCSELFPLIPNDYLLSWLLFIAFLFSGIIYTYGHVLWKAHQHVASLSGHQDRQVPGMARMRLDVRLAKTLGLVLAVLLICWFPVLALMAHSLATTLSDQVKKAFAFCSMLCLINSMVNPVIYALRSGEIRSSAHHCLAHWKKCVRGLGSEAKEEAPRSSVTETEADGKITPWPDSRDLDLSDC

Assays:
[1] = i.v., mice
hCB2R = hCB2R (Homo sapiens, UniProt P34972); test: [3H]CP55940 displacement assay; format: binding; settings: 10^(pKi CB2R-pKi CB1R)

Row | SMILES | Vss [1] | CB2R Selectivity (binding, human) (hCB2R)
1 | CN1CCCC[C@H]1Cn1cc(C(=O)c2cc([N+](=O)[O-])ccc2I)c2ccccc21 [(S)-AM1241] | 9.3 L/kg and > 3 L/kg | 
2 | COc1ccc(C(=O)c2c(C)n(CCN3CCOCC3)c3cc(I)ccc23)cc1 [AM630] | 14.0 L/kg and > 3 L/kg | 
3 | Cc1ccc2c(c1)Cc1c(C(=O)NN3CCCCC3)nn(-c3ccc(Cl)cc3Cl)c1-2 [Gp-1a] | 9.9 L/kg and > 3 L/kg | less than 30 fold and 5 fold
4 | CCCn1c(C)c(C(=O)c2cccc3ccccc23)c2ccccc21 [JWH015] | 10.1 L/kg and > 3 L/kg | 
5 | CCCCCCC(C)(C)c1cc(OC)c(C2=C[C@H]3CC[C@]2(CO)C3(C)C)c(OC)c1 [HU910] | 0.26 L/kg and < 1 L/kg | 
